{"source": "PubChem BioAssay AID1259425, University of Nebraska Medical Center | 2018", "purpose": "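Find knockdowns that reproduce the gene expression pattern seen when KSR1 is lost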 (primary screen)", "cells": "HCT116 human colon cancer cells", "reagents": "siRNA pool against human genes, 50 nM siRNA", "measured": "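After 50 nM siRNA pool, branched-DNA assay measures six marker transcripts per well, minus blank, normalised to the geometric mean of two housekeeping transcripts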", "reading the numbers": "BNIP3L mRNA: higher = more BNIP3L transcript after knockdown; NDRG1 mRNA: higher = more NDRG1 transcript after knockdown", "note": "This is one part, drawn at random, of about 14,000 reagents. Further read-outs or replicates are left out here. Reagent sequences are not shown. Not stated in the record: the time to read-out."}
{"gene knocked down":"PHRF1 (GeneID 57661)","BNIP3L mRNA, set 1":0.0779,"NDRG1 mRNA, set 1":0.162}
{"gene knocked down":"SCPEP1 (GeneID 59342)","BNIP3L mRNA, set 1":0.0569,"NDRG1 mRNA, set 1":0.394}
{"gene knocked down":"PRAMEF1 (GeneID 65121)","BNIP3L mRNA, set 1":0.0734,"NDRG1 mRNA, set 1":0.121}
{"gene knocked down":"MED28 (GeneID 80306)","BNIP3L mRNA, set 1":0.186,"NDRG1 mRNA, set 1":0.717}
{"gene knocked down":"NUDCD1 (GeneID 84955)","BNIP3L mRNA, set 1":0.173,"NDRG1 mRNA, set 1":0.181}
{"gene knocked down":"TMPRSS15 (GeneID 5651)","BNIP3L mRNA, set 1":0.0659,"NDRG1 mRNA, set 1":0.149}
{"gene knocked down":"KDM2B (GeneID 84678)","BNIP3L mRNA, set 1":0.155,"NDRG1 mRNA, set 1":0.24}
{"gene knocked down":"FOCAD (GeneID 54914)","BNIP3L mRNA, set 1":0.104,"NDRG1 mRNA, set 1":0.263}
{"gene knocked down":"CD8A (GeneID 925)","BNIP3L mRNA, set 1":0.076,"NDRG1 mRNA, set 1":0.0997}
{"gene knocked down":"RSF1 (GeneID 51773)","BNIP3L mRNA, set 1":0.102,"NDRG1 mRNA, set 1":0.0758}
{"gene knocked down":"TMEM14B (GeneID 81853)","BNIP3L mRNA, set 1":0.0568,"NDRG1 mRNA, set 1":0.276}
{"gene knocked down":"MCM6 (GeneID 4175)","BNIP3L mRNA, set 1":0.0592,"NDRG1 mRNA, set 1":0.138}
{"gene knocked down":"COA8 (GeneID 84334)","BNIP3L mRNA, set 1":0.202,"NDRG1 mRNA, set 1":0.177}
{"gene knocked down":"IQCB1 (GeneID 9657)","BNIP3L mRNA, set 1":0.0498,"NDRG1 mRNA, set 1":0.171}
{"gene knocked down":"TFAP2D (GeneID 83741)","BNIP3L mRNA, set 1":0.0985,"NDRG1 mRNA, set 1":0.137}
{"gene knocked down":"PRDM16 (GeneID 63976)","BNIP3L mRNA, set 1":0.107,"NDRG1 mRNA, set 1":0.0726}

A portion of the results above:
{"gene knocked down":"COA8 (GeneID 84334)","BNIP3L mRNA, set 1":0.202,"NDRG1 mRNA, set 1":0.177}
{"gene knocked down":"IQCB1 (GeneID 9657)","BNIP3L mRNA, set 1":0.0498,"NDRG1 mRNA, set 1":0.171}

Additional results:
{"gene knocked down":"ARHGEF2 (GeneID 9181)","BNIP3L mRNA, set 1":0.0913,"NDRG1 mRNA, set 1":0.247}
{"gene knocked down":"EXOC6B (GeneID 23233)","BNIP3L mRNA, set 1":0.0843,"NDRG1 mRNA, set 1":0.737}
{"gene knocked down":"HMCES (GeneID 56941)","BNIP3L mRNA, set 1":0.255,"NDRG1 mRNA, set 1":0.0962}
{"gene knocked down":"CCNJL (GeneID 79616)","BNIP3L mRNA, set 1":0.34,"NDRG1 mRNA, set 1":1.27}
{"gene knocked down":"NR1D2 (GeneID 9975)","BNIP3L mRNA, set 1":0.0992,"NDRG1 mRNA, set 1":0.104}
{"gene knocked down":"SLC35A5 (GeneID 55032)","BNIP3L mRNA, set 1":0.122,"NDRG1 mRNA, set 1":0.88}
{"gene knocked down":"PLAA (GeneID 9373)","BNIP3L mRNA, set 1":0.327,"NDRG1 mRNA, set 1":0.912}
{"gene knocked down":"CACNA1G (GeneID 8913)","BNIP3L mRNA, set 1":0.109,"NDRG1 mRNA, set 1":0.332}
{"gene knocked down":"GABRA2 (GeneID 2555)","BNIP3L mRNA, set 1":0.0319,"NDRG1 mRNA, set 1":0.158}
{"gene knocked down":"TPTE (GeneID 7179)","BNIP3L mRNA, set 1":0.0497,"NDRG1 mRNA, set 1":0.0974}
{"gene knocked down":"HRH2 (GeneID 3274)","BNIP3L mRNA, set 1":0.151,"NDRG1 mRNA, set 1":0.503}
{"gene knocked down":"WBP2 (GeneID 23558)","BNIP3L mRNA, set 1":0.102,"NDRG1 mRNA, set 1":0.134}
{"gene knocked down":"GALNT1 (GeneID 2589)","BNIP3L mRNA, set 1":0.108,"NDRG1 mRNA, set 1":0.205}
{"gene knocked down":"TXNL4A (GeneID 10907)","BNIP3L mRNA, set 1":0.052,"NDRG1 mRNA, set 1":0.262}
{"gene knocked down":"PDCD5 (GeneID 9141)","BNIP3L mRNA, set 1":0.0834,"NDRG1 mRNA, set 1":0.544}
{"gene knocked down":"MC3R (GeneID 4159)","BNIP3L mRNA, set 1":0.0812,"NDRG1 mRNA, set 1":0.343}
{"gene knocked down":"AFAP1 (GeneID 60312)","BNIP3L mRNA, set 1":0.153,"NDRG1 mRNA, set 1":0.14}
{"gene knocked down":"TAS2R7 (GeneID 50837)","BNIP3L mRNA, set 1":0.199,"NDRG1 mRNA, set 1":0.379}
{"gene knocked down":"RPL10A (GeneID 4736)","BNIP3L mRNA, set 1":0.541,"NDRG1 mRNA, set 1":1.26}
{"gene knocked down":"INPP5F (GeneID 22876)","BNIP3L mRNA, set 1":0.132,"NDRG1 mRNA, set 1":0.089}
